Measurements reported in PubChem BioAssay AID504774 (Drosophila RNAi Screening Center, 2011).

Purpose: 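Genes required for cells to withstand methyl methanesulphonate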 (primary screen)
Cell system: Drosophila Kc167 cells
Reagents: long dsRNA against Drosophila genes, about 0.25 µg dsRNA per well
Time to read-out: about 6 days: 3 days knock-down, then 3 days with or without MMS
Treatment: methyl methanesulphonate 0.004% (w/v) for 3 days after knock-down
Detection: 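Viability in wells given MMS, read as ATP luminescence, normalised by quantiles plate by plate and averaged across replicates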
Reading the numbers: mean viability with MMS and viability with MMS: higher = more surviving cells after MMS
The deposit covers about 23,000 reagents; shown is an unselected part of those that have a named target and a result. 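Values are quantile-normalised luminescence on an arbitrary scale; higher means more cells surviving MMS.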

mean viability with MMS,"viability with MMS, replicate 1","viability with MMS, replicate 2",target gene,dsRNA
3.20e6,3.62e6,3.66e6,CG7173,DRSC11812
2.83e6,2.88e6,3.31e6,CG7173,DRSC23252
3.83e6,4.33e6,4.27e6,CG15210,DRSC19656
3.41e6,3.94e6,3.76e6,Pten,DRSC03402
3.43e6,3.91e6,3.88e6,CG18130,DRSC19790
3.61e6,4.04e6,4.14e6,SdhAL,DRSC10539
3.48e6,4.02e6,3.87e6,Grip84,DRSC20248
3.68e6,4.04e6,4.19e6,CG11155,DRSC17184
3.56e6,4.07e6,4.01e6,CG11155,DRSC17205

Targets above whose target name begins with C or c:
mean viability with MMS,"viability with MMS, replicate 1","viability with MMS, replicate 2",target gene,dsRNA
3.20e6,3.62e6,3.66e6,CG7173,DRSC11812
2.83e6,2.88e6,3.31e6,CG7173,DRSC23252
3.83e6,4.33e6,4.27e6,CG15210,DRSC19656
3.43e6,3.91e6,3.88e6,CG18130,DRSC19790
3.68e6,4.04e6,4.19e6,CG11155,DRSC17184
3.56e6,4.07e6,4.01e6,CG11155,DRSC17205

Additional entries follow:
mean viability with MMS,"viability with MMS, replicate 1","viability with MMS, replicate 2",target gene,dsRNA
3.02e6,3.59e6,3.59e6,Spc105R,DRSC11663
3.55e6,4.08e6,3.97e6,CG11099,DRSC06034
3.47e6,4.08e6,3.77e6,Cad88C,DRSC15486
3.52e6,4.00e6,3.98e6,amrt,DRSC19378
3.56e6,4.08e6,4.00e6,CG11710,DRSC20485
3.69e6,4.39e6,3.94e6,CG32188,DRSC09510
3.42e6,4.07e6,4.01e6,CG13838,DRSC14688
3.76e6,4.25e6,4.25e6,CG8321,DRSC07148
3.52e6,4.01e6,3.96e6,CG32199,DRSC09990
3.48e6,3.97e6,3.94e6,Cp19,DRSC11121
3.50e6,4.02e6,3.93e6,CG17681,DRSC02632
3.57e6,3.96e6,4.17e6,Cul3,DRSC03537
3.51e6,4.11e6,3.89e6,Cul3,DRSC21525
3.73e6,4.13e6,4.33e6,CG14856,DRSC14980
3.57e6,4.13e6,3.95e6,Npc2h,DRSC14297
3.59e6,4.08e6,4.06e6,Pef,DRSC06695
3.86e6,3.94e6,4.70e6,Tsen54,DRSC10527
3.64e6,4.20e6,4.09e6,Ostgamma,DRSC03074
3.42e6,3.95e6,3.78e6,CG9389,DRSC11857
